In all, about 33,000 sequences were measured (“E-score (-0.5 to 0.5)”: median about -8e-05, highest 2% from about 0.23 on). The list shows a part of the results.
molecular target: T1, Nrg2 (UniProt P38082); experiment: PBM E-score (8-mer binding enrichment) (E-score (-0.5 to 0.5)); higher = stronger / more preferred TF binding; conditions: protein concentration: 100 nM; construct: GST-full length
T1 sequence: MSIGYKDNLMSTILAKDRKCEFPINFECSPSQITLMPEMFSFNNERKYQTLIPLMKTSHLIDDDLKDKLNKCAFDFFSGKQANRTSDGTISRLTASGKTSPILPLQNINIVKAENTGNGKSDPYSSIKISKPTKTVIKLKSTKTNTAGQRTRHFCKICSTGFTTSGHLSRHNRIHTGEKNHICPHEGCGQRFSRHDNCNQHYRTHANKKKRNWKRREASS
Method in brief: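 Yeast transcription factors, full-length or as DNA-binding domains, were expressed with a GST tag using PURExpress in vitro transcription/translation. At about 100-200 nM they were applied to universal all-10-mer Agilent arrays, double-stranded by primer extension on fresh or once-stripped slides. Fluorescent anti-GST detected bound protein, and masliner normalised the scans. E-scores for ungapped eight-base words, pooled with reverse complements, came from the Universal PBM Analysis Suite.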

Row | Sequence | PBM E-score
1 | ACGCGTCG | 0.161
2 | CGATTTTC | 0.0455
3 | CGCGTGTA | -0.0243
4 | TCTGTACA | 0.0867
5 | CCTAGTCC | -0.205
6 | AGATCTGA | -0.0084
7 | CTCAGCCC | -0.271
8 | AAGGCGGG | -0.208
9 | GTCGCTCA | -0.0243
10 | TCCATCCA | -0.0903
11 | ACGATGTG | 0.0997
12 | TCCTTCAA | -0.102
13 | CATTCTCC | -0.125
14 | AGCTACGA | 0.0935
15 | GACTAGTA | -0.0245
16 | ACCCCCCG | -0.322
17 | ACTATTTC | 0.193
18 | CGAAGGAC | -0.205
19 | ACAAGCTC | -0.039
20 | CACTGTCG | -0.177
21 | GGCCAGCC | -0.0474
22 | GGACTGAC | -0.0649
23 | ATCTCCAT | 0.0415
24 | AATTTGAG | -0.0565
25 | AATCAGAA | 0.149

Row | Sequence | PBM E-score
26 | TTTGAAAA | 0.119
27 | ATTTATTA | 0.273
28 | TGGACAAA | 0.0708
29 | CCACTGAC | -0.142
30 | GATATCAC | 0.124
31 | CGTTGCAC | -0.0794
32 | ACAGTTCG | 0.103
33 | AATTCGAC | -0.232
34 | CGCACCGA | -0.0482
35 | CCGTTTCG | -0.0514
36 | AGAGCGTA | -0.0186
37 | CTTGTGCA | 0.227
38 | ACCCTACC | 0.154
39 | TACGATGA | -0.0904
40 | CTCTGGGC | -0.113
41 | GCCTTAAC | -0.0167
42 | CCTGTAGC | -0.259
43 | AGGGGTAA | 0.0864
44 | AACCGGGG | -0.0683
45 | AACACCGG | -0.0363
46 | CGAGGCGC | 0.038
47 | GACGCGCA | 0.055
48 | AATGACGC | 0.0754
49 | CGAACCGC | 0.182
50 | TATCATAA | 0.145

Records 28 to 31, quoted:
Row | Sequence | PBM E-score
28 | TGGACAAA | 0.0708
29 | CCACTGAC | -0.142
30 | GATATCAC | 0.124
31 | CGTTGCAC | -0.0794

Next records

Row | Sequence | PBM E-score
51 | CGACGCGC | 0.0799
52 | ATCGAGAG | 0.0784
53 | AGTGAGCA | -0.196
54 | AAGCACGT | 0.0258
55 | CGGTCATA | 0.00512
56 | ATTTGGAC | 0.128
57 | GCTACTAC | 0.18
58 | TAGCAAGA | -0.034
59 | GCAATCAA | 0.139
60 | ATTACCCC | 0.0377
61 | CCGCGACA | 0.139
62 | CTAAATAA | -0.0346
63 | TACAATGA | -0.0688
64 | GGTGAGGA | -0.121
65 | AATCGCCC | -0.00062
66 | AGGATCAT | -0.0592
67 | GCGGGGTA | 0.0152
68 | AGCCCGGG | -0.114
69 | GTCCTGAA | -0.0502
70 | ATGCGGCG | 0.0328
71 | AATCCAGA | 0.119
72 | CAGAAGAA | -0.0182
73 | AACATTCT | 0.0588
74 | CTGGACAC | -0.138
75 | AAACTGTT | 0.137

Row | Sequence | PBM E-score
76 | AACTCGTG | 0.172
77 | AGCAACTG | 0.0717
78 | ACTAAAAT | 0.141
79 | TCGGACGA | 0.169
80 | CTATTCCA | 0.167
81 | ATAGGGAA | -0.11
82 | GGCACTCA | -0.181
83 | CAGCATGC | 0.0425
84 | ATGGCTCG | 0.063
85 | ATCCTTCC | -0.249
86 | TGCGCGCA | 0.211
87 | CTCACTCA | -0.0512
88 | CGACAAGA | 0.191
89 | CACCGCTG | -0.104
90 | AGAACTAC | 0.0806
91 | GAAGCCAA | -0.0658
92 | ATTAATGC | 0.0582
93 | CGCAAAGA | 0.111
94 | CACAAGAG | 0.14
95 | GCTGCTCA | -0.114
96 | ATGGATCG | 0.0772
97 | ACCCGCTC | -0.19
98 | GAATGCAC | 0.0486
99 | TAAGATTA | -0.0227
100 | CTCGACGC | 0.0222

Random excerpt: 2 entries already listed, in no set order.
Row | Sequence | PBM E-score
84 | ATGGCTCG | 0.063
83 | CAGCATGC | 0.0425

Additional records follow:

Row | Sequence | PBM E-score
101 | CCATCTAC | 0.0771
102 | CCAGATGG | -0.0627
103 | CGGAAATC | -0.0345
104 | ACTATAGC | -0.094
105 | ACGTTCAC | -0.135
106 | CTGTACAC | 0.0438
107 | CAATTACA | 0.165
108 | ACCACCGC | 0.0124
109 | CCGGACAG | 0.0654
110 | CATAGAGA | -0.0297
111 | CCCGGAAG | -0.084
112 | CCCGCCTC | -0.122
113 | AGACGCTA | -0.138
114 | AATGGCAA | -0.0281
115 | ATAGCGGC | 0.00138
116 | ATATTAGC | 0.129
117 | GGTAGGAC | -0.0944
118 | AGGTCACG | -0.164
119 | AATGACAC | 0.0228
120 | CCTAGCAC | -0.122
121 | AGAGCTCC | -0.192
122 | ACAAACGG | 0.186
123 | ATACAACA | 0.246
124 | GTAGGCTA | -0.139
125 | ATCGGCAG | 0.0895

Row | Sequence | PBM E-score
126 | ACTCACTA | 0.102
127 | GGCCCCTA | 0.0271
128 | CTTTAGCC | -0.00956
129 | CTGTGAAC | 0.0404
130 | CGTTCGTC | 0.152
131 | CATCGTGA | -0.185
132 | ATAGTGGA | 0.0767
133 | GAGATGCC | -0.0159
134 | ATCAATAC | 0.136
135 | GACAACGA | 0.131
136 | TAGGTCGA | -0.0386
137 | CCCTTATC | 0.156
138 | ATGAAAAA | 0.147
139 | AAGGACGC | 0.125
140 | ACCGGTCT | -0.319
141 | AGTTTCAG | -0.0621
142 | ACGGCTAC | -0.0414
143 | CCGGACCC | 0.0932
144 | CAGTTAAG | 0.117
145 | ACATTCGC | 0.0444
146 | AAGAGTAG | -0.00063
147 | AAGCGCGT | 0.0191
148 | TGAGGAAA | -0.0852
149 | CGTGAAGC | -0.101
150 | ACCAACGT | -0.0856

Row | Sequence | PBM E-score
151 | AAGTGGGT | 0.0971
152 | ATCAGGTA | -0.0349
153 | AGCCTAAA | -0.0539
154 | CCCTGTCG | 0.185
155 | AAGTGGAC | -0.0892
156 | ATAGTGAG | -0.0619
157 | CACATGCA | 0.0613
158 | AAGGGGAC | 0.0615
159 | ACATGCGC | 0.182
160 | AATAAATT | 0.215
161 | TGCTATAA | -0.0684
162 | ACGCGCTC | 0.154
163 | GTAATCTA | 0.225
164 | CACCATGG | -0.215
165 | ATCTACAA | -0.0413
166 | TGAAGTAA | -0.0936
167 | AAAAGATC | -0.0177
168 | AGCGCCAC | -0.11
169 | ATCAGGAG | -0.0827
170 | GAGCTCCC | 0.0119
171 | ACTTAACC | -0.0358
172 | CGGCGACC | -0.0226
